According to US20180272042A1, “DRUG-POLYMER FILM FOR CONTROLLED LOCAL DELIVERY AT TISSUE-DEVICE INTERFACE” (Brown University, priority 2017, published 2018):
At least one compound was matched to its structure with a doubt left.

Test system: oxidative stress
Assay: oxidative stress in vitro model
Type: cell-based
Details: pterostilbene compared with resveratrol

COc1cc(/C=C/c2ccc(O)cc2)cc(OC)c1 [pterostilbene]
treatment of oxidative stress: comparable
